Values from PubChem BioAssay AID1224826 (NIAID, 2016).

Aim: 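Genes that change LPS-induced Tnf promoter activity in mouse macrophages when knocked down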 (primary screen)
Cell system: RAW264.7 G9 macrophages from mouse bearing reporters for p65 (GFP) and the Tnf promoter (mCherry)
Reagents: siRNA pool against mouse genes, 100 nM
Timing: 16 h of LPS stimulation, after 2 days of siRNA transfection
Treatment: bacterial lipopolysaccharide (Salmonella minnesota R595), 10 ng/ml
Measured: 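Nuclear mCherry signal of the Tnf promoter reporter measured by imaging after background removal, scaled to each plate median and turned into robust z-scores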
Reading the numbers: Tnf reporter robust z-score: higher = stronger Tnf promoter reporter signal after LPS
Rule for the call: 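Called active when robust z-score is at most -1.3, matching the median of the Tlr4 knock-down control, or over 3; control wells and wells with under 50 cells never active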
Calls: active = Tnf reporter clearly lowered or raised; inactive = no clear change in Tnf reporter
In all, the deposit lists about 17,000 reagents; this is a part drawn at random. About 1,110 of all reagents (6.6%) were called active. 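Active means lowered or raised reporter signal; replicate intensities are raw and not normalised per plate.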 Further read-outs or replicates are left out here. No sequences are given here.

Psmd8 (proteasome (prosome, macropain) 26S subunit, non-ATPase, 8)
- Tnf reporter robust z-score: -1.66
- fewer than 50 cells in well: enough cells in well
- outcome: active

Cpeb2 (cytoplasmic polyadenylation element binding protein 2)
- Tnf reporter robust z-score: 0.83
- fewer than 50 cells in well: enough cells in well
- outcome: inactive

Ranbp17 (RAN binding protein 17)
- Tnf reporter robust z-score: -0.12
- fewer than 50 cells in well: enough cells in well
- outcome: inactive

Akr1cl (aldo-keto reductase family 1, member C-like)
- Tnf reporter robust z-score: -0.29
- fewer than 50 cells in well: enough cells in well
- outcome: inactive

Plpp2 (phospholipid phosphatase 2)
- Tnf reporter robust z-score: -1.04
- fewer than 50 cells in well: enough cells in well
- outcome: inactive

Or4c104 (olfactory receptor family 4 subfamily C member 104)
- Tnf reporter robust z-score: 0.22
- fewer than 50 cells in well: enough cells in well
- outcome: inactive

She (src homology 2 domain-containing transforming protein E)
- Tnf reporter robust z-score: 1.47
- fewer than 50 cells in well: enough cells in well
- outcome: inactive

Nrbp1 (nuclear receptor binding protein 1)
- Tnf reporter robust z-score: -1.72
- fewer than 50 cells in well: enough cells in well
- outcome: active

Nlrp10 (NLR family, pyrin domain containing 10)
- Tnf reporter robust z-score: 0.13
- fewer than 50 cells in well: enough cells in well
- outcome: inactive

Zscan2 (zinc finger and SCAN domain containing 2)
- Tnf reporter robust z-score: -0.58
- fewer than 50 cells in well: enough cells in well
- outcome: inactive

Amy2a5 (amylase 2a5)
- Tnf reporter robust z-score: -0.74
- fewer than 50 cells in well: enough cells in well
- outcome: inactive

Agpat5 (1-acylglycerol-3-phosphate O-acyltransferase 5)
- Tnf reporter robust z-score: 0.1
- fewer than 50 cells in well: enough cells in well
- outcome: inactive

Fbxw11 (F-box and WD-40 domain protein 11)
- Tnf reporter robust z-score: -1.46
- fewer than 50 cells in well: enough cells in well
- outcome: active

Gsdmc3 (gasdermin C3)
- Tnf reporter robust z-score: 0.21
- fewer than 50 cells in well: enough cells in well
- outcome: inactive

Limited to “Tnf reporter robust z-score” (2 entries from above):
Agpat5 (1-acylglycerol-3-phosphate O-acyltransferase 5)	0.1
Fbxw11 (F-box and WD-40 domain protein 11)	-1.46

Continued:
4932407I05
- fewer than 50 cells in well: fewer than 50 cells per well; well left out of calls
- outcome: inactive

Htr1b (5-hydroxytryptamine (serotonin) receptor 1B)
- Tnf reporter robust z-score: -0.14
- fewer than 50 cells in well: enough cells in well
- outcome: inactive

Supt6 (SPT6, histone chaperone and transcription elongation factor)
- Tnf reporter robust z-score: -1.91
- fewer than 50 cells in well: enough cells in well
- outcome: active

Defa4 (defensin, alpha, 4)
- Tnf reporter robust z-score: 1.34
- fewer than 50 cells in well: enough cells in well
- outcome: inactive

Cfap20 (cilia and flagella associated protein 20)
- Tnf reporter robust z-score: -0.06
- fewer than 50 cells in well: enough cells in well
- outcome: inactive

Retnla (resistin like alpha)
- Tnf reporter robust z-score: 0.4
- fewer than 50 cells in well: enough cells in well
- outcome: inactive

Il22 (interleukin 22)
- Tnf reporter robust z-score: -0.81
- fewer than 50 cells in well: enough cells in well
- outcome: inactive
